From the supplement of paper PMC5407854, “Inhibitor of ppGalNAc-T3-mediated O-glycosylation blocks cancer cell invasiveness and lowers FGF23 levels” (eLife, 2017)
This is one part of the list. Most entries show no effect beyond the scatter of the controls.

Experiments:
ppGalNAc-T3 sensor = experiment: T3 sensor activation Q score (MG/GFP ratio z-score vs DMSO controls) (SD units); higher = more sensor activation (inhibition of ppGalNAc-T3 glycosylation); conditions: HEK293 sensor cells; 10 µM; 6 h
Description: (§1)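 Cells were treated with compound at 10 uM for 6 h, then MG/GFP ratio was read by flow cytometry (10,000 cells per well, duplicate wells). Q = (R - R_neg)/SD_neg relative to DMSO vehicle controls; the signal rises when the glycosyltransferase is inhibited.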

ppGalNAc-T2 sensor = experiment: T2 sensor activation Q score (MG/GFP ratio z-score vs DMSO controls) (SD units); higher = more sensor activation (inhibition of ppGalNAc-T2 glycosylation); conditions: HEK293 sensor cells; 10 µM; 6 h
Description: as §1

| Compound | T3 sensor activation Q score (ppGalNAc-T3 sensor) | T2 sensor activation Q score (ppGalNAc-T2 sensor) |
| --- | --- | --- |
| O=C(NC1CCCCCC1)C1CCNCC1 | 0.14 | -0.74 |
| COc1ccc(CN2CCC(O)CC2)c(OC)c1 | 1.12 | 0.385 |
| COc1ccccc1CNC(=O)c1ccccc1I | 0.56 | 0.35 |
| O=[N+]([O-])c1ccccc1Oc1ccccc1 | 0.415 | -0.27 |
| O=C(O)C12C3C4C1C1C2C3C41C(=O)O (stereo not drawn) | 0.355 | 2.1 |
| Fc1ccc(CN2CCc3ccccc3C2)cc1Br | -0.155 | -0.435 |
| CN1CCC(NCc2ccccc2F)CC1 | 0.6 | -0.065 |
| COc1cc(OC)c(OC)cc1CN1CCC(N2CCCCC2)CC1 | 0.865 | -0.91 |
| COc1ccc(C2=NCCc3cc(OC)c(OC)cc32)cc1 | 0.1 | 0.8 |
| Cc1cccc(NC(=O)CCC(=O)O)c1 | -0.065 | 0.305 |
| CCOc1ccc(CN2CCN(c3ccccc3OCC)CC2)cc1 | 0.09 | -0.78 |
| Cc1cc(=O)n(-c2ccc(S(=O)(=O)O)cc2)[nH]1 | 0.8 | -1.03 |
| Nc1ccn(-c2ccccc2)n1 | 1.09 | 0.905 |
| Cc1cc(C)cc(C(c2ccccc2)C2([N+](=O)[O-])C(=O)c3ccccc3C2=O)c1 (stereo not drawn) | 0.45 | -0.85 |
| NC(=O)C1CCN(C2CC(=O)N(c3cc(Cl)cc(Cl)c3)C2=O)CC1 (stereo not drawn) | -0.23 | -0.08 |
| O=[N+]([O-])c1ccccc1CN1CCC(O)CC1 | 0.49 | 1.17 |
| O=C(NC1CCCCCCC1)c1ccc(Br)o1 | 0.05 | -0.61 |
| CC(=O)c1c(C)nc(C)c(C(C)=O)c1-c1ccccc1 | 0.205 | 0.255 |
| CCOc1cc(CN2CCCN(C)CC2)ccc1OC | 0.07 | -0.125 |

2 of these compounds, set out differently:
Compound,T3 sensor activation Q score (ppGalNAc-T3 sensor),T2 sensor activation Q score (ppGalNAc-T2 sensor)
Fc1ccc(CN2CCc3ccccc3C2)cc1Br,-0.155,-0.435
COc1ccc(C2=NCCc3cc(OC)c(OC)cc32)cc1,0.1,0.8
